Laboratory results taken from paper PMC12765262.
No constants are given. Whether binding was seen depends on the method and setting. In cells and extracts the contact can be indirect. Some results given as binding are weak or reduced against the parent protein; the word gives no strength. Tags and fused reporters may be left off the sequences shown. Values belong to the molecule of their own block, whether it stands above or below them.

Chains of the proteins cited; added tags and fusions are not shown.
UniProt P30153: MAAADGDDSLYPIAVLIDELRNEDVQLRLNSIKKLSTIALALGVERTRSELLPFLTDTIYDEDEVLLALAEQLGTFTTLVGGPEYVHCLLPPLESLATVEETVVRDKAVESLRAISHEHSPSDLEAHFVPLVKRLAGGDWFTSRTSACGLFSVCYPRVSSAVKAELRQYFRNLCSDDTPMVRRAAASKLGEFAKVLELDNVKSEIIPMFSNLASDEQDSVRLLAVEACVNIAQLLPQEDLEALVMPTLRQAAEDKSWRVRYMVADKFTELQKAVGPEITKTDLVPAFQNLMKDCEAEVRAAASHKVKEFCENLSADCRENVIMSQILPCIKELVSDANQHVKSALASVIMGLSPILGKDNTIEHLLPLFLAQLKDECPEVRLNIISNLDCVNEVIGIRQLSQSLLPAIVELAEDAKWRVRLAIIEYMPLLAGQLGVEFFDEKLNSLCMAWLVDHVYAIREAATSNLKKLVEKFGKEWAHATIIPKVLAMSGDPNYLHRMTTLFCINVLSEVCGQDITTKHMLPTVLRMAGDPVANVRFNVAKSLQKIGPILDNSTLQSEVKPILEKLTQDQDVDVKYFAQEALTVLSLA

Tests used:
[1] = molecular target: T1, FLAG-tagged GXYLT2 (glucoside xylosyltransferase 2) (UniProt A0PJZ3); assay: co-IP; 293T cells transiently transfected with HA-tagged PP2A Aα and FLAG-tagged GXYLT2; IP with FLAG-tag antibody and blot with HA-tag antibody, and IP with HA-tag antibody and blot with FLAG-tag antibody; whole cell lysates as input
T1 sequence: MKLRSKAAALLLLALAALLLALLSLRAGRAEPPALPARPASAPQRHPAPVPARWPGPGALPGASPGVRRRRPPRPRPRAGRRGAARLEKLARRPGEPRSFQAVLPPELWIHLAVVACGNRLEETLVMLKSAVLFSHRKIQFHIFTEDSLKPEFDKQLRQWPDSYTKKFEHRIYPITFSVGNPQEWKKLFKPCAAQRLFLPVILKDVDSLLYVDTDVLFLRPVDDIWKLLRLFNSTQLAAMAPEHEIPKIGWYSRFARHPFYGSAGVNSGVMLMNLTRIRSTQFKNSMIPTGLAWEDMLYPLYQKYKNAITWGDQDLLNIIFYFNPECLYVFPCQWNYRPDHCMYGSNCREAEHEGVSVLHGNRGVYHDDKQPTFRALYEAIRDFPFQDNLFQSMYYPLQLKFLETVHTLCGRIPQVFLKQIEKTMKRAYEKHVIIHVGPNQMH

[2] = molecular target: HA-tagged PP2A Aα (protein phosphatase 2A scaffold subunit, A subunit) (UniProt P30153); assay: as above

binding [1]: binds
Molecule: HA-tagged PP2A Aα (protein phosphatase 2A scaffold subunit, A subunit) (from UniProt P30153 1-589)

binding [2]: binds
B1: FLAG-tagged GXYLT2 (glucoside xylosyltransferase 2) (enzyme, UniProt A0PJZ3 1-443)
chain: T1 sequence
